According to the supplement of paper PMC6411743:
± gives the standard deviation of the averaged measurements. Some of the results follow.

The chains behind the UniProt entries cited, without tags or fusion partners. Where a name states a change or a piece, a line headed by the entry shows the natural chain unless it says otherwise.
UniProt Q9Y3L5: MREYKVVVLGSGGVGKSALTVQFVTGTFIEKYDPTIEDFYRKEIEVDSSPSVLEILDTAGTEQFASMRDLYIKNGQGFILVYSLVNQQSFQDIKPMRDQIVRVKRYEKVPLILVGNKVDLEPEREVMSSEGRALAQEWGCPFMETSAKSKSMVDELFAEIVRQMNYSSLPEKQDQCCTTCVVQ
UniProt Q9Y287, whole entry, looked up: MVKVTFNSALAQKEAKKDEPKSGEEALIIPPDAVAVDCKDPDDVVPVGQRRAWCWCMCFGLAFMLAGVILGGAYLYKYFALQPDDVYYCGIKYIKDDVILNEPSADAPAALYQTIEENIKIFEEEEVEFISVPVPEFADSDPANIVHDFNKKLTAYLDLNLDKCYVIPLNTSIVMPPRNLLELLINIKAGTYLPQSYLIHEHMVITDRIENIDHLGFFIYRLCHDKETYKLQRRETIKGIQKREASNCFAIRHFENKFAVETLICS
UniProt Q9Y250: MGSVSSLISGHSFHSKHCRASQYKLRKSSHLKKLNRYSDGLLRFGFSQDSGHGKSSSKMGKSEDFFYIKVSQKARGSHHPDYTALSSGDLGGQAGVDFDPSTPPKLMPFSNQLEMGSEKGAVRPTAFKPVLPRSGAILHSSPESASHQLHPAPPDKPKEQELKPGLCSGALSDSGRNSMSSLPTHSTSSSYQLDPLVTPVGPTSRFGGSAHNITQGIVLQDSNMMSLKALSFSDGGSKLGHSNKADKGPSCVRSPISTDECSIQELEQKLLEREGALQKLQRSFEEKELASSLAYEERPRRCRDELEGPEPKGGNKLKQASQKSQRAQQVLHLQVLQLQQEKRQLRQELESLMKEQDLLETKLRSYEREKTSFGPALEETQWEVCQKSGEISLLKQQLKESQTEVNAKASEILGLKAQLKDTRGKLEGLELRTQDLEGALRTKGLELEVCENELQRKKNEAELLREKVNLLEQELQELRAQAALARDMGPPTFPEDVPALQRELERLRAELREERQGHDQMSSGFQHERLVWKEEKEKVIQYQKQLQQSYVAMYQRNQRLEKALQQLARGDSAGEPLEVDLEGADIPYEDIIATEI
UniProt Q9Y5K8, whole entry: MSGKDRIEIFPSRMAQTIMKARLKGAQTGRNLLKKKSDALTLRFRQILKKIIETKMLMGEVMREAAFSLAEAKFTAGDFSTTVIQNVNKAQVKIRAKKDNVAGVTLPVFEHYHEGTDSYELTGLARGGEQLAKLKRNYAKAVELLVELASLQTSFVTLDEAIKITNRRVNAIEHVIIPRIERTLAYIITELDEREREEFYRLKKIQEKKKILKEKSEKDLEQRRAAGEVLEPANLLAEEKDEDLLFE
UniProt Q9UPU5: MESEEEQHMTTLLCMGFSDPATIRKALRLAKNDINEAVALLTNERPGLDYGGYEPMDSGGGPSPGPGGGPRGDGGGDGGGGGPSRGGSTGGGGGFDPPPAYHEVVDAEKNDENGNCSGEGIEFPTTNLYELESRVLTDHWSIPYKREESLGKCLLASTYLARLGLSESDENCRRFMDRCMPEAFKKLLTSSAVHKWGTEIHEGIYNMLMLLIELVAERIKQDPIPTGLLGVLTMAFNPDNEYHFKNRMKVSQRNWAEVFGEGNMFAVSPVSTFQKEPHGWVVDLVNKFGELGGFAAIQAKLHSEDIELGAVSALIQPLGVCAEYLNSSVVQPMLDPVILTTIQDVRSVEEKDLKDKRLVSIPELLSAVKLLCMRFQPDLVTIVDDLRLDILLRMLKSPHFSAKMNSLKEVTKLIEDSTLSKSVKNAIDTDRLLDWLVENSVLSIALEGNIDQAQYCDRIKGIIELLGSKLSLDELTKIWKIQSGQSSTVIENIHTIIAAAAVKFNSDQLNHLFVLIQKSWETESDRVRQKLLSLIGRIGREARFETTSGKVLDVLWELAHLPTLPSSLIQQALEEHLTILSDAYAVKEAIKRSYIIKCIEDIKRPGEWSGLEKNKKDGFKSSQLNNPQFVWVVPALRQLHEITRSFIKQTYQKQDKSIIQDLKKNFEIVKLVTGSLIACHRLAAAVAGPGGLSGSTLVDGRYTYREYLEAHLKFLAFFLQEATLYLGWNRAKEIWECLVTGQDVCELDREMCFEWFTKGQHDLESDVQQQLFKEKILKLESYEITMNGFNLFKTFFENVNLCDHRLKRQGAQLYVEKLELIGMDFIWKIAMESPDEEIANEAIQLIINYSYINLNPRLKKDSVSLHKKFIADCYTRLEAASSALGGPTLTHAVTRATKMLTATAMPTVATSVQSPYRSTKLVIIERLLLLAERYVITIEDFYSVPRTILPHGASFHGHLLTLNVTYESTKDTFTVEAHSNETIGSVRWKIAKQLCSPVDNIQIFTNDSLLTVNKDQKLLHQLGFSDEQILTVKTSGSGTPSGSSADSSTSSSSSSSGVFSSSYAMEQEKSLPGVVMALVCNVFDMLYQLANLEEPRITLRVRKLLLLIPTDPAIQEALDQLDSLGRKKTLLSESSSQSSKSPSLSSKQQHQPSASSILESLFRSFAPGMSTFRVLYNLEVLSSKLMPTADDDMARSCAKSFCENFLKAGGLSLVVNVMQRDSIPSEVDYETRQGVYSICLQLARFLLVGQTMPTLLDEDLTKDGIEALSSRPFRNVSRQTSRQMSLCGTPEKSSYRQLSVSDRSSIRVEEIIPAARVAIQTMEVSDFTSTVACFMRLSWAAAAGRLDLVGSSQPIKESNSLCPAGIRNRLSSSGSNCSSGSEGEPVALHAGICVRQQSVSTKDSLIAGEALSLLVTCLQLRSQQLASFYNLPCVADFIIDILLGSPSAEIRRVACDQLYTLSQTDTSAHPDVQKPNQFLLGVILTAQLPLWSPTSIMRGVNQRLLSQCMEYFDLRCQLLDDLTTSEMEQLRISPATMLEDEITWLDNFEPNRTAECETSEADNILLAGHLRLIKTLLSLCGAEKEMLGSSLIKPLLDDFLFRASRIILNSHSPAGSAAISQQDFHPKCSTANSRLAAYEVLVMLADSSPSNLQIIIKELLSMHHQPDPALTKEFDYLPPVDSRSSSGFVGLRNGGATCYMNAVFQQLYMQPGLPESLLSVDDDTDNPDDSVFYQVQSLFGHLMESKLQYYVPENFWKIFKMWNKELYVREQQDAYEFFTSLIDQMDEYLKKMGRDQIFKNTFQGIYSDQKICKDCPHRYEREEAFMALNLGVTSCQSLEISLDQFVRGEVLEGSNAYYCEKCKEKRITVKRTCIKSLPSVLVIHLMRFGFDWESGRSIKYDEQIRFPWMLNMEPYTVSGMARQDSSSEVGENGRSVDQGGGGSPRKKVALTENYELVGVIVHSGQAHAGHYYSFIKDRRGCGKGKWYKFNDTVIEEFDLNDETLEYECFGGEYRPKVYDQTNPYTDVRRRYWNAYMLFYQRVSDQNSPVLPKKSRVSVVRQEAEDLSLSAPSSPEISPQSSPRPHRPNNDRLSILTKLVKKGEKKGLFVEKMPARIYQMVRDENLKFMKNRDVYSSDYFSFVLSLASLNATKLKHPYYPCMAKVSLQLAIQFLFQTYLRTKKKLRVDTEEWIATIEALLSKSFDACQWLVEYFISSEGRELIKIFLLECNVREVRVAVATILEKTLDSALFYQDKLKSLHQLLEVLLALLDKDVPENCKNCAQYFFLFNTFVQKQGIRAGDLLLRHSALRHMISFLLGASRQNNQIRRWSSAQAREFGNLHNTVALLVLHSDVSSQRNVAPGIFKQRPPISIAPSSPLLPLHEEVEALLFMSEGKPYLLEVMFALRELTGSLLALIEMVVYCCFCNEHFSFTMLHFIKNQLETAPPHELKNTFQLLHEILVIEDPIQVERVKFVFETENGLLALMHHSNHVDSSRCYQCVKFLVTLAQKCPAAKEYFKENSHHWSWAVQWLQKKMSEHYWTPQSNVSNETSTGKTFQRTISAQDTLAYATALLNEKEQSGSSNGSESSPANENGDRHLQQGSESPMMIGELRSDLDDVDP
UniProt Q9Y478: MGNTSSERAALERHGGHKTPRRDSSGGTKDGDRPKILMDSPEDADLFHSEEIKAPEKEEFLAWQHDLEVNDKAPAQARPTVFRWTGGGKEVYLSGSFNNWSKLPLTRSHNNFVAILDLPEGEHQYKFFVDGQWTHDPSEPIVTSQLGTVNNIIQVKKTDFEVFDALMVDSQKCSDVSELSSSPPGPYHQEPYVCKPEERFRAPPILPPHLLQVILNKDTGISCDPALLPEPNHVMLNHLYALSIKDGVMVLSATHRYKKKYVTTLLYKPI
UniProt Q9Y5J1: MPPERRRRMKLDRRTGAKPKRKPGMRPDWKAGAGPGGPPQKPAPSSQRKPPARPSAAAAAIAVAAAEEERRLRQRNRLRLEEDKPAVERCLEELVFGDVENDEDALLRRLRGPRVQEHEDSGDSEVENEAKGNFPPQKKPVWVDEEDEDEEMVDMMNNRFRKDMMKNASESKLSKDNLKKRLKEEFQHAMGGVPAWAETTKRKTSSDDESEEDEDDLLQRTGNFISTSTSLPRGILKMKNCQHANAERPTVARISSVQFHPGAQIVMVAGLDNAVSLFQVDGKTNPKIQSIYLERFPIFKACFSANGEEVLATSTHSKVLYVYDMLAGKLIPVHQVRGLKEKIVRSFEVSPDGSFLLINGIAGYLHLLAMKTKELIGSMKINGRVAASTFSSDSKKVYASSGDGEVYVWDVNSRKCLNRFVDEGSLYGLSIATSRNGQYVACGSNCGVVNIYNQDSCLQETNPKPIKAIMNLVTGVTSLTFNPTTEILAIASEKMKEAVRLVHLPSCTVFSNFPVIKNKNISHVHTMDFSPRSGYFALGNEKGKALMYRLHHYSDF
UniProt Q9UNY4: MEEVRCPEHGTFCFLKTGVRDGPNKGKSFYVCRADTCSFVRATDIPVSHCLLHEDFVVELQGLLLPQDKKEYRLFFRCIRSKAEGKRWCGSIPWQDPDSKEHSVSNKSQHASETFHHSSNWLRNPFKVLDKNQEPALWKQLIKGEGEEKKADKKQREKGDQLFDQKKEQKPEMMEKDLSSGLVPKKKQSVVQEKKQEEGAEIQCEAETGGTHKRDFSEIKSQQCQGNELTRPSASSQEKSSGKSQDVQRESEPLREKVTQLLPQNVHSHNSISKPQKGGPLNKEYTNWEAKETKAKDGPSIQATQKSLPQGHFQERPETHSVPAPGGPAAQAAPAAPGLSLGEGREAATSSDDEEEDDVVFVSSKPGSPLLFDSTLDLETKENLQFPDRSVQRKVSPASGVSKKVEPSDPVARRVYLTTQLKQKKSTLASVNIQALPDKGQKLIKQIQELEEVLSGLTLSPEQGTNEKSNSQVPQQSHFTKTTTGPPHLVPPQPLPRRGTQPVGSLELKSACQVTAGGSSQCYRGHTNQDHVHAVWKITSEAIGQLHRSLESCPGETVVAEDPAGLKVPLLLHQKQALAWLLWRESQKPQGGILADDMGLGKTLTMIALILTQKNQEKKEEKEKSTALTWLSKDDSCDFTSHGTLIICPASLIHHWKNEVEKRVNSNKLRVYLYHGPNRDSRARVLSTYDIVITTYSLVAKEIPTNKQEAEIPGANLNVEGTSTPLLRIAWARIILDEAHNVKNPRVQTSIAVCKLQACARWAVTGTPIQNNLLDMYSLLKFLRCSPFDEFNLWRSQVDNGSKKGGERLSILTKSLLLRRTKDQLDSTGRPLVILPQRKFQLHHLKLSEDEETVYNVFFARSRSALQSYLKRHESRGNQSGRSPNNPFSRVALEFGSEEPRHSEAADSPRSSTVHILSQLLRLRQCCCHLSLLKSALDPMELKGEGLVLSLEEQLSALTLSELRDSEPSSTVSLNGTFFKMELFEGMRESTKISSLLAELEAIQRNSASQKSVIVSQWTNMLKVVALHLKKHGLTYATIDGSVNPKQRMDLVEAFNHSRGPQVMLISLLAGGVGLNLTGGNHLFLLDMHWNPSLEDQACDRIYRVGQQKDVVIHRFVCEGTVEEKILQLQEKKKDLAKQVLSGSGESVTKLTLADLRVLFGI
UniProt Q9UMS4: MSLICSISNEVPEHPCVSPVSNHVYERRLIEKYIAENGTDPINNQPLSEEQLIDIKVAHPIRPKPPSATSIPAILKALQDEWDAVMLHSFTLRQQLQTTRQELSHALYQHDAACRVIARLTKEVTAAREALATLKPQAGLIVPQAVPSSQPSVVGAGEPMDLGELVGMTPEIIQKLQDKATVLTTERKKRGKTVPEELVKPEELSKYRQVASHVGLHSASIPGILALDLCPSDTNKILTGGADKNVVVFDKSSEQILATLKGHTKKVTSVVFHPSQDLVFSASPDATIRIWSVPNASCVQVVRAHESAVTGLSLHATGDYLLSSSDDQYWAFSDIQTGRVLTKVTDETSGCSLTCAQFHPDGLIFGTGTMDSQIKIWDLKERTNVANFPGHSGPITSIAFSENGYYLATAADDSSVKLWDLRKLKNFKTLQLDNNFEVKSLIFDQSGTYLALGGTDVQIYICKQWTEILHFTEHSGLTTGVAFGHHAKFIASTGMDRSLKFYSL
UniProt Q9Y2S6, whole entry: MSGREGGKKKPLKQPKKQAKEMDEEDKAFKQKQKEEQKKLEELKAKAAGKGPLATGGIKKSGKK

Compound: Nc1nc2c(ncn2[C@@H]2O[C@H](COP(=O)(O)OP(=O)(O)OP(=O)(O)O)[C@@H](O)[C@H]2O)c(=O)[nH]1 [guanosine triphosphate]
Test: NP40-soluble protein abundance relative to vehicle (solubility fold change) (ratio); higher = more soluble protein in presence of GTP
Outline: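 Jurkat crude lysate prepared with a Dounce homogeniser was treated at eight concentrations spanning 0.1 to 10 mM, 10 min at room temperature then 3 min at 37 °C. Solubilisation with 0.8% NP40 and benzonase and ultracentrifugation preceded TMT labelling of the supernatant for LC-MS/MS. Fold change against the detergent-processed vehicle was determined per replicate from vsn-normalised intensities, across three independent experiments.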

Target	NP40-soluble protein abundance (concentration: 0.1mM)	NP40-soluble protein abundance (concentration: 0.5mM)	NP40-soluble protein abundance (concentration: 1mM)	NP40-soluble protein abundance (concentration: 2mM)	NP40-soluble protein abundance (concentration: 4mM)	NP40-soluble protein abundance (concentration: 6mM)	NP40-soluble protein abundance (concentration: 8mM)	NP40-soluble protein abundance (concentration: 10mM)
UniProt Q9Y3L5	0.939 ± 0.34	0.939 ± 0.27	0.803 ± 0.13	0.879 ± 0.26	0.873 ± 0.22	0.807 ± 0.15	0.82 ± 0.19	0.959 ± 0.29
CHKB (UniProt Q9Y259)	0.959 ± 0.13	0.937 ± 0.082	0.972 ± 0.21	1.02 ± 0.2	0.934 ± 0.13	1.03 ± 0.28	1 ± 0.097	0.965 ± 0.16
UniProt Q9Y2U5	1.05 ± 0.062	0.992 ± 0.051	0.939 ± 0.011	0.964 ± 0.053	0.945 ± 0.039	0.933 ± 0.016	0.929 ± 0.035	0.921 ± 0.021
UniProt Q9Y6I3 and related entries	0.905 ± 0.051	0.92 ± 0.064	0.975 ± 0.013	0.93 ± 0.057	0.879 ± 0.034	0.942 ± 0.042	0.948 ± 0.098	1.04 ± 0.017
UniProt Q9Y287 and related entries	0.952 ± 0.12	0.956 ± 0.064	0.9524 ± 0.0023	0.872 ± 0.038	0.90108 ± 1.4e-06	0.895 ± 0.011	0.897 ± 0.02	0.911 ± 0.0058
UniProt Q9Y250 and related entries	0.977 ± 0.022	0.947 ± 0.062	1.01 ± 0.017	1.02 ± 0.057	0.977 ± 0.034	1.03 ± 0.018	1.1 ± 0.087	1.09 ± 0.074
HSPB11 (UniProt Q9Y547)	1.02 ± 0.027	1.03 ± 0.016	0.952 ± 0.06	0.992 ± 0.084	0.992 ± 0.047	0.974 ± 0.052	0.941 ± 0.031	0.981 ± 0.11
ATP6V1D (UniProt Q9Y5K8)	1.04 ± 0.016	1.06 ± 0.03	1.04 ± 0.03	1.06 ± 0.022	1.056 ± 0.0052	1.03 ± 0.05	1.02 ± 0.045	0.992 ± 0.018
UniProt Q9Y2A7 and related entries	0.9505 ± 0.0043	1.002 ± 0.0081	0.972 ± 0.055	0.982 ± 0.015	0.991 ± 0.034	0.9641 ± 0.0054	1.02 ± 0.026	0.973 ± 0.011
UniProt Q9Y6M7-13|Q9Y6M7-6|Q9Y6M7-7|Q9Y6M7-9	0.97 ± 0.023	0.953 ± 0.041	0.936 ± 0.049	0.937 ± 0.056	0.951 ± 0.023	1.05 ± 0.051	1.05 ± 0.051	1.05 ± 0.049
LUC7L2 (UniProt Q9Y383)	1.09 ± 0.11	1.4 ± 0.08	1.58 ± 0.098	1.54 ± 0.18	1.56 ± 0.12	1.66 ± 0.12	1.74 ± 0.15	1.7 ± 0.16
USP24 (UniProt Q9UPU5)	1.05 ± 0.078	1.07 ± 0.092	0.969 ± 0.073	0.971 ± 0.12	0.958 ± 0.079	0.943 ± 0.08	0.905 ± 0.05	0.867 ± 0.08
UniProt Q9Y6J0 and related entries	1.03 ± 0.087	1.02 ± 0.052	1.09 ± 0.023	1.06 ± 0.065	1.08 ± 0.093	1.15 ± 0.11	1.16 ± 0.13	1.16 ± 0.12
PRKAB1 (UniProt Q9Y478)	1.05 ± 0.067	1.01 ± 0.054	1.1 ± 0.027	1.01 ± 0.031	1 ± 0.033	1 ± 0.03	1.02 ± 0.067	0.937 ± 0.061
UniProt Q9Y5B8 and related entries	1.07 ± 0.047	1.05 ± 0.066	0.915 ± 0.037	0.971 ± 0.099	0.946 ± 0.067	0.931 ± 0.082	0.871 ± 0.045	0.868 ± 0.096
UniProt Q9Y2D5 and related entries	0.925 ± 0.057	0.968 ± 0.087	0.997 ± 0.12	1.01 ± 0.12	1.09 ± 0.12	1.25 ± 0.13	1.36 ± 0.1	1.42 ± 0.11
UTP18 (UniProt Q9Y5J1)	1.06 ± 0.091	1.16 ± 0.12	1.13 ± 0.091	1.24 ± 0.091	1.37 ± 0.11	1.3 ± 0.044	1.37 ± 0.17	1.57 ± 0.17
TTF2 (UniProt Q9UNY4)	1 ± 0.015	0.994 ± 0.03	0.974 ± 0.045	0.967 ± 0.036	0.937 ± 0.057	0.954 ± 0.067	0.984 ± 0.037	0.964 ± 0.037
RBM19 (UniProt Q9Y4C8)	1 ± 0.059	1 ± 0.052	1.05 ± 0.077	1.11 ± 0.065	1.22 ± 0.089	1.26 ± 0.077	1.38 ± 0.078	1.38 ± 0.13
MRPS33 (UniProt Q9Y291)	0.992 ± 0.16	1.04 ± 0.26	1.38 ± 0.51	1.48 ± 0.43	1.5 ± 0.52	1.31 ± 0.4	1.25 ± 0.39	1.4 ± 0.59
UniProt Q9Y2I7	1.03 ± 0.015	1.03 ± 0.033	0.995 ± 0.034	1 ± 0.043	0.989 ± 0.045	0.968 ± 0.058	0.967 ± 0.033	0.957 ± 0.019
AFG3L2 (UniProt Q9Y4W6)	0.998 ± 0.016	0.996 ± 0.016	0.946 ± 0.024	0.969 ± 0.022	0.977 ± 0.022	0.987 ± 0.04	0.988 ± 0.02	0.938 ± 0.014
NOP58 (UniProt Q9Y2X3)	1.01 ± 0.049	1.02 ± 0.019	1.07 ± 0.075	1.19 ± 0.044	1.4 ± 0.066	1.58 ± 0.13	1.77 ± 0.11	2.07 ± 0.16
UniProt Q9UMX0 and related entries	0.999 ± 0.07	0.998 ± 0.015	1.09 ± 0.11	1.02 ± 0.032	1.012 ± 0.0015	0.994 ± 0.039	1.02 ± 0.053	1.01 ± 0.039
PRPF19 (UniProt Q9UMS4)	0.963 ± 0.028	1.01 ± 0.044	0.963 ± 0.03	1.01 ± 0.043	1.04 ± 0.067	1.08 ± 0.089	1.1 ± 0.11	1.12 ± 0.075
ZC3H4 (UniProt Q9UPT8)	0.924 ± 0.044	0.924 ± 0.062	0.997 ± 0.018	0.967 ± 0.059	0.974 ± 0.061	0.994 ± 0.056	1.04 ± 0.051	1.04 ± 0.06
UniProt Q9Y450 and related entries	0.979 ± 0.041	0.982 ± 0.028	0.962 ± 0.035	0.95 ± 0.017	0.979 ± 0.031	0.958 ± 0.021	0.987 ± 0.054	0.977 ± 0.07
UniProt Q9Y2S6	0.961 ± 0.16	0.927 ± 0.13	0.966 ± 0.18	0.841 ± 0.23	0.783 ± 0.18	0.784 ± 0.23	0.875 ± 0.16	0.867 ± 0.14

Laid out differently: results already given.
Target,NP40-soluble protein abundance (concentration: 0.1mM),NP40-soluble protein abundance (concentration: 0.5mM),NP40-soluble protein abundance (concentration: 1mM),NP40-soluble protein abundance (concentration: 2mM),NP40-soluble protein abundance (concentration: 4mM),NP40-soluble protein abundance (concentration: 6mM),NP40-soluble protein abundance (concentration: 8mM),NP40-soluble protein abundance (concentration: 10mM)
CHKB (UniProt Q9Y259),0.959 ± 0.13,0.937 ± 0.082,0.972 ± 0.21,1.02 ± 0.2,0.934 ± 0.13,1.03 ± 0.28,1 ± 0.097,0.965 ± 0.16
NOP58 (UniProt Q9Y2X3),1.01 ± 0.049,1.02 ± 0.019,1.07 ± 0.075,1.19 ± 0.044,1.4 ± 0.066,1.58 ± 0.13,1.77 ± 0.11,2.07 ± 0.16
